Measurements as given in patent US20100041694A1, “AGRICULTURAL COMPOSITION FOR CONTROLLING OR PREVENTING PLANT DISEASES CAUSED BY PLANT PATHOGENIC MICROBES” (Sumitomo Chemical Company, Limited, priority 2007, published 2010).
Some entries share one result that the patent states for a list of compounds.

What was measured:
Assay type in all cases: in vivo
[1] = tested on: Verticillium albo-atrum, V. dahliae, V. nigrescens; experiment: Potato blue stem, soil irrigation treatment; conditions: potato (Danshaku) in contaminated soil, 10 mg compound per pot by soil irrigation, 2 months
Gibberella fujikuroi = experiment: Rice bakanae disease, seed treatment; conditions: contaminated unhulled rice, seed treatment 200 g compound per 100 kg seeds, 1 month
Gaeumannomyces graminis = experiment: Malt damping off, seed treatment; conditions: contaminated malt seeds, seed treatment 200 g compound per 100 kg seeds, 1 month
Botrytis cinerea = experiment: Preventing infection by cucumber gray mold, foliage application; conditions: cucumber (Sagami-Hanjiro), flowable formulation 500 ppm foliage application, then inoculation; 12° C. high humidity 5 days
Sclerotinia sclerotiorum = experiment: Preventing infection by cucumber Sclerotinia rot, foliage application; conditions: cucumber (Sagami-Hanjiro), flowable formulation 500 ppm foliage application, then inoculation; 18° C. high humidity 4 days
Fusarium oxysporum = experiment: Preventing infection by tomato wilt by soil treatment (irrigation); conditions: tomato (Patio) in contaminated soil, 10 mg compound per pot by soil irrigation, 1 month

| SMILES | blotches in treated plants [1] | growth of treated plants [1] | growth of treated plants (Gibberella fujikuroi) | growth of treated plants (Gaeumannomyces graminis) | infected areas of treated plants relative to infected areas of untreated plants (Botrytis cinerea) [%] | infected areas of treated plants relative to infected areas of untreated plants (Sclerotinia sclerotiorum) [%] | blotches in treated plants (Fusarium oxysporum) | growth of treated plants (Fusarium oxysporum) |
| --- | --- | --- | --- | --- | --- | --- | --- | --- |
| CC(C)=CCOc1cccc(CNC(=O)c2ccc3ncccc3c2)c1 [Compound 90] | no blotches are found | favorably grow at a level equivalent to that of plants that grow in noncontaminated soil | favorably grow at a level equivalent to that of plants that have grown from noncontaminated unhulled rice | favorably grow at a level equivalent to that of plants that grow from noncontaminated seeds | ≤ 10 | ≤ 10 | no blotches are found | favorably grow at a level equivalent to that of plants that grow have in noncontaminated soil |
| CC(C)=CCOc1cccc(CNC(=O)c2ccc3ncccc3c2)c1F [Compound 91] | no blotches are found | favorably grow at a level equivalent to that of plants that grow in noncontaminated soil | favorably grow at a level equivalent to that of plants that have grown from noncontaminated unhulled rice | favorably grow at a level equivalent to that of plants that grow from noncontaminated seeds | ≤ 10 | ≤ 10 | no blotches are found | favorably grow at a level equivalent to that of plants that grow have in noncontaminated soil |
| O=C(NCc1cccc(Oc2ccccc2)c1)c1cc(F)c2ncccc2c1 [Compound 95] | no blotches are found | favorably grow at a level equivalent to that of plants that grow in noncontaminated soil | favorably grow at a level equivalent to that of plants that have grown from noncontaminated unhulled rice | favorably grow at a level equivalent to that of plants that grow from noncontaminated seeds | ≤ 10 | ≤ 10 | no blotches are found | favorably grow at a level equivalent to that of plants that grow have in noncontaminated soil |
| O=C(NCc1ccc(OCCc2ccccc2)cc1)c1ccc2ncccc2c1 [Compound 103] | no blotches are found | favorably grow at a level equivalent to that of plants that grow in noncontaminated soil | favorably grow at a level equivalent to that of plants that have grown from noncontaminated unhulled rice | favorably grow at a level equivalent to that of plants that grow from noncontaminated seeds | ≤ 10 | ≤ 10 | no blotches are found | favorably grow at a level equivalent to that of plants that grow have in noncontaminated soil |
| CC(C)COc1cccc(CNC(=O)c2ccc3ncccc3c2)c1 [Compound 110] | no blotches are found | favorably grow at a level equivalent to that of plants that grow in noncontaminated soil | favorably grow at a level equivalent to that of plants that have grown from noncontaminated unhulled rice | favorably grow at a level equivalent to that of plants that grow from noncontaminated seeds | ≤ 10 | ≤ 10 | no blotches are found | favorably grow at a level equivalent to that of plants that grow have in noncontaminated soil |
